Tested on: panelists
Experiment: Cooling intensity: panelists taste aqueous solutions, compared with menthol at 2 ppm
Assay type: in vivo, human
Details: aqueous solution, Table 1

| Structure (SMILES) | Odor |
| --- | --- |
| CC1(C)[C@@H]2CC[C@@]1(C)[C@H](OC(=O)CCC(=O)O)C2 [Example 4, 4-oxo-4-((1R,2R,4R)-1,7,7-trimethylbicyclo[2.2.1]heptan-2-yloxy)butanoic acid] | None |
| CC(C)[C@@H]1CC[C@@H](C)C[C@H]1O [l-Menthol, reference compound] | Minty |
| CN(C)C(=O)CCC(=O)O[C@@H]1C2(C)CCC(C2)C1(C)C (stereo partly drawn) [Example 7, (2R)-1,3,3-trimethylbicyclo[2.2.1]heptan-2-yl 4-(dimethylamino)-4-oxobutanoate] | None |
| CCNC(=O)C1CC(C)CCC1C(C)C (centres unmarked) [WS-3, N-ethyl p-menthanecarboxamide, reference compound] | None |
| C[C@@H](N)C(=O)OC1C2(C)CCC(C2)C1(C)C (stereo partly drawn) [Example 8, D-alanine fenchyl ester] | None |
| CC1(C)[C@H]2CC[C@]1(C)[C@H](OC(=O)CCC(=O)O)C2 [Example 1, 4-oxo-4-(1S,2R,4S)1,7,7-trimethylbicyclo[2.2.1]heptan-2-yloxybutanoic acid] | None |
| CC1(C)[C@H]2CC[C@](C)(C2)[C@H]1OC(=O)CCC(=O)O [Example 9, 4-oxo-4-((1R,2R,4S)-1,3,3-trimethylbicyclo[2.2.1]heptan-2-yloxy)butanoic acid] | None |
| CCOC(=O)CC(=O)O[C@@H]1C2(C)CCC(C2)C1(C)C (stereo partly drawn) [Example 6, Ethyl (2R)-1,3,3-trimethylbicyclo[2.2.1]heptan-2-yl malonate] | None |

From patent publication US20080311232A1, “Cooling Compounds” (Givaudan, SA, priority 2007, published 2008)
